Data published in publication PMC6558757 (JRSM Cardiovascular Disease, 2019).

Test system: hiPSC-CMs (iCells)
Assay: hiPSC-CM assay
Format: cell-based, human

## Cc1cccc(CCN2CCC(C(=O)c3ccc(NS(C)(=O)=O)cc3)CC2)n1 [E-4031]
hERG blocker alone at tested concentrations (cisapride 3, 10 and 30 nM)
  effect on beating rate and impedance amplitude: little effect
hERG blocker alone, concentrations below EAD-causing concentration
  effect on FPDcF (without pacing) and FPD (paced at 1.2 Hz): increased
